PubChem BioAssay AID1159578 – Peter MacCallum Cancer Centre, 2015
This is one part, drawn at random, of about 18,000 deposited reagents. About 1,030 of them (5.7%) were called active. 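Inactive calls also include pools with fewer than 3300 nuclei, whose migration was not assessed.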 Raw values vary from plate to plate and are shown uncorrected.

- Screen: 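Genome-wide hunt for genes controlling movement of lymphatic endothelial cells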 (primary screen)
- Cell system: human lymphatic endothelial cells
- Reagent: siRNA pool against human genes, 40 nM
- Duration: 48 h after transfection
- Detection: 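Cells stained with dye and imaged after a scratch; covered wound area and nuclei counted, duplicates averaged, migration set against mock wells and turned into a robust z-score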
- Reading the numbers: migration robust z-score: higher = faster migration into the scratch; migration relative to mock: higher = more scratch area covered than mock; nuclei per well: higher = more cells in the well
- Active means: 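Pools averaging fewer than 3300 nuclei are never called; remaining pools count as changed when migration robust z lies outside -2 to 2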
- Meaning of the calls: active = migration changed; inactive = no migration change, or too few cells

Target gene,PubChem SID,migration robust z-score,migration class with cell-count check,migration relative to mock,"nuclei per well, duplicate mean",activity call
SARS2,SID255358286,-0.24,migration z between -2 and 2; enough cells,0.76,3920,inactive
CSPG4,SID255349136,0.47,migration z between -2 and 2; enough cells,1.01,7032,inactive
GOLT1B,SID255357420,0.43,migration z between -2 and 2; enough cells,1,6717,inactive
PDXDC1,SID255355949,-4.2,under 3300 nuclei; migration not judged,-0.23,2940,inactive
ZNF581,SID255357777,0.92,migration z between -2 and 2; enough cells,1.12,5541,inactive
SCARA5,SID255364901,-2.21,migration z below -2; enough cells,0.31,5019,active
NHLRC4,SID255364717,0.13,migration z between -2 and 2; enough cells,0.92,5744,inactive
OPRPN,SID255359646,3.34,migration z above 2; enough cells,1.75,6730,active
NBPF8,SID255366065,0.56,migration z between -2 and 2; enough cells,1.03,5333,inactive
SSH3,SID255358306,0.34,migration z between -2 and 2; enough cells,0.87,5380,inactive
GSR,SID255350068,-1.38,migration z between -2 and 2; enough cells,0.54,4958,inactive
KCNA7,SID255350591,1.73,migration z between -2 and 2; enough cells,1.14,4636,inactive
SURF4,SID255352704,-1.6,migration z between -2 and 2; enough cells,0.47,4931,inactive
FRAT1,SID255354751,0.16,migration z between -2 and 2; enough cells,0.84,5457,inactive
RAPGEF3,SID255355057,-0.23,migration z between -2 and 2; enough cells,0.83,6097,inactive
INTS7,SID255356536,0.21,migration z between -2 and 2; enough cells,0.94,6730,inactive
EXO1,SID255354081,0.76,migration z between -2 and 2; enough cells,0.95,6153,inactive
RNF187,SID255363423,0.64,migration z between -2 and 2; enough cells,0.93,6652,inactive
CAMK1,SID255353628,-2.39,migration z below -2; enough cells,0.34,4106,active
IL1RAP,SID255350446,1.27,migration z between -2 and 2; enough cells,1.05,5382,inactive
FXYD4,SID255357937,0.18,migration z between -2 and 2; enough cells,0.84,5553,inactive
BST2,SID255348585,1.12,migration z between -2 and 2; enough cells,1.17,6056,inactive
VPS51,SID255348622,-0.66,migration z between -2 and 2; enough cells,0.72,5552,inactive
SGK3,SID255356404,-2.56,migration z below -2; enough cells,0.31,4634,active
MELTF,SID255350948,0.73,migration z between -2 and 2; enough cells,1.08,5662,inactive
OR51F2,SID255362478,-0.43,migration z between -2 and 2; enough cells,0.77,6026,inactive
S100A7A,SID255364980,-0.56,migration z between -2 and 2; enough cells,0.74,4750,inactive
RBMY1D,SID255365406,0.5,migration z between -2 and 2; enough cells,1.02,6409,inactive
ADA2,SID255357908,0.96,migration z between -2 and 2; enough cells,0.99,4904,inactive
GSTM5,SID255350077,1.19,migration z between -2 and 2; enough cells,1.04,5632,inactive
PPM1K,SID255363550,0.36,migration z between -2 and 2; enough cells,0.88,6607,inactive
WWOX,SID255357880,0.52,migration z between -2 and 2; enough cells,0.9,5934,inactive
YIPF4,SID255361288,0.32,migration z between -2 and 2; enough cells,0.96,6031,inactive
OR4B1,SID255362483,1.17,migration z between -2 and 2; enough cells,1.19,6874,inactive
MTCL3,SID255365428,-0.05,migration z between -2 and 2; enough cells,0.87,5534,inactive
LRRC47,SID255359405,0.32,migration z between -2 and 2; enough cells,0.97,4602,inactive
TSLIG2,SID255360199,0.8,migration z between -2 and 2; enough cells,1.09,5374,inactive
CCER1,SID255363971,-0.28,migration z between -2 and 2; enough cells,0.82,5494,inactive
TMX3,SID255358042,1.27,migration z between -2 and 2; enough cells,1.05,7554,inactive
SLC4A4,SID255353726,-1.27,migration z between -2 and 2; enough cells,0.56,5960,inactive
ALB,SID255348256,-0.52,migration z between -2 and 2; enough cells,0.7,5795,inactive
OR13A1,SID255360268,-0.56,migration z between -2 and 2; enough cells,0.74,5125,inactive
CACNA2D2,SID255354148,0.13,migration z between -2 and 2; enough cells,0.83,5098,inactive
HNRNPH3,SID255350251,-0.93,migration z between -2 and 2; enough cells,0.64,6126,inactive
CACNA1C,SID255348649,-1.97,migration z between -2 and 2; enough cells,0.42,4348,inactive
CCDC190,SID255365046,0.08,migration z between -2 and 2; enough cells,0.9,4532,inactive
ARMC10,SID255361092,-3.56,migration z below -2; enough cells,-0.06,4196,active
RSPO3,SID255361537,-1.55,migration z between -2 and 2; enough cells,0.48,6325,inactive
CERS3,SID255364138,-0.11,migration z between -2 and 2; enough cells,0.86,5467,inactive
RSKR,SID255362640,-1.12,migration z between -2 and 2; enough cells,0.59,4996,inactive
PHEX,SID255351551,0.78,migration z between -2 and 2; enough cells,0.96,5816,inactive
SAMD7,SID255365178,-1.55,migration z between -2 and 2; enough cells,0.48,4280,inactive
ZNF706,SID255357496,-0.68,migration z between -2 and 2; enough cells,0.71,5956,inactive
RNF145,SID255363579,0.18,migration z between -2 and 2; enough cells,0.84,5365,inactive
OR2D2,SID255362501,-0.77,migration z between -2 and 2; enough cells,0.68,5616,inactive
PAGE5,SID255361858,0.11,migration z between -2 and 2; enough cells,0.92,4802,inactive
MDM2,SID255350916,-0.44,migration z between -2 and 2; enough cells,0.72,4978,inactive
